The target of the test is recombinant CD47 protein (Homo sapiens, UniProt Q08722). The experiment in a line: SPR, recombinant CD47 amine-coupled to CM5 chip.

Protein sequences, listed by entry. Tags and fused reporters are not part of them. Residues count along the entry.
UniProt Q08722, residues 19-139: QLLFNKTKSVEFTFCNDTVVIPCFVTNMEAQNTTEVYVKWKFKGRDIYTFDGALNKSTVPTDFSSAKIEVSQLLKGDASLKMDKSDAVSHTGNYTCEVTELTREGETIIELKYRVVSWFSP

No constants are given. Whether binding was seen depends on the method and setting. Some results given as binding are weak or reduced against the parent protein; the word gives no strength.

B1: SV4 (designed binder)
chain: MEEELQIIQPDLSVSVAAGESAILHCTITSLFPVGPIQWFRGAGPARVLIYNQRQGPFPRVTTVSETTKRENMDFSISISNITPADAGTYYCIKFRKGSPDTEFLSGAGTELSVRAKPS
As to B1, the binding entry is on record as “binds”.

B2: SV4-DSPE (protein)
chain: MEEELQIIQPDLSVSVAAGESAILHCTITSLFPVGPIQWFRGAGPARVLIYNQRQGPFPRVTTVSETTKRENMDFSISISNITPADAGTYYCIKFRKGSPDTEFLSGAGTELSVRAKPS
In the case of B2, the binding result is listed as “binds”.

Source of the values: US20230293571A1, “POLYNUCLEOTIDE FOR CANCER TREATMENT, ENCODING 5'-NUCLEOTIDASE MODIFIED PROTEIN” (priority 2020, published 2023).
